Data published in PubChem BioAssay AID1259354 (Paczesny and Yang Labs, IUPUI and University of Michigan, 2018).
“And” between values parts separate entries of the source, which are not always exact repeats. Identical values can stand only once. The campaign covered roughly 78,000 compounds. About 1,800 (2.3%) were called active. This list was built around the results that the source calls inconclusive (neither active nor inactive); the mix of calls is not that of the screen. Cut-off read from the data, not from the text of the source: active = inhibition above about 30%; inconclusive = mostly about 10% to 28%; inactive = weaker than that.

Amino acid sequences for entries named in this document (tags omitted). A change or cut given only in a name is not applied to a line headed by its entry.
UniProt Q01638: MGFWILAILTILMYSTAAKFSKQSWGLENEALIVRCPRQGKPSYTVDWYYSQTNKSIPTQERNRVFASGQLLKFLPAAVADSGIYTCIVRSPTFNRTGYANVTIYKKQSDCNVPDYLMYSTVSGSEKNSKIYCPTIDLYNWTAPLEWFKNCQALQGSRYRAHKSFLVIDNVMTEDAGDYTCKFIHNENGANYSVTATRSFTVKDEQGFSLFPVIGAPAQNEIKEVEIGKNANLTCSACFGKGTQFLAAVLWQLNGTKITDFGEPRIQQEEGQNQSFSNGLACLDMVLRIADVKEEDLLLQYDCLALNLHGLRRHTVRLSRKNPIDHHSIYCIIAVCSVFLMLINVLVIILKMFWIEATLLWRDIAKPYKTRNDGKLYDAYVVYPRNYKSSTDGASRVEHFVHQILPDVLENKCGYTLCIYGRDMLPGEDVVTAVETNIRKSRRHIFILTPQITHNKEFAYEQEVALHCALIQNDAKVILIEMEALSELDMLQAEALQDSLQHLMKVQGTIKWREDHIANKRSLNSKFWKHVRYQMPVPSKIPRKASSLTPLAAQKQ

target: Interleukin-1 receptor-like 1 (Homo sapiens) (UniProt Q01638); assay: blocks human ST2 binding to IL-33, primary screen, biochemical, AlphaLISA (AID 1259354); details: AlphaLISA ST2-Fc/biotin-IL-33 interaction, 1 h; at 17 µM, stronger effect = higher value

| Compound | inhibition |
| --- | --- |
| Cc1ccc(N2C(=O)C3C(C2=O)[C@H]2C=C[C@@H]3CC2)c(C)c1 (stereo partly drawn) | inconclusive: 17% and inconclusive: 13% |
| CCc1nnc(CN(C)c2nccc(-c3ccc(C)nc3C)n2)o1 | inconclusive: 13% |
| O=C(O)c1cc(N2C(=O)C3C4C=CC(O4)C3C2=O)ccc1Cl (stereo not drawn) | inconclusive: 19% |
| Cn1c(CN2CCCC(CNC(=O)c3ccc(-c4ccccc4)cc3)C2)nc2ccccc21 (stereo not drawn) | inactive |
| COc1ccc(NC(=O)c2ccc(Cl)c(Cl)c2)c(OC)c1 | inconclusive: 18% |
| c1ccc(-c2cnn3cc(CN4CCN(CC5CCCO5)CC4)cnc23)cc1 (stereo not drawn) | inconclusive: 10% |
| O=c1oc(-c2cccs2)nc2sc3c(c12)CCC3 | inactive |
| COc1cccc(CN2CCc3nnc(C(C)NC(=O)CCc4ccccc4)n3CC2)c1O (stereo not drawn) | inactive |
| CCN(C(=O)c1cccc(NC(=O)CSc2nncn2C)c1)c1ccccc1 | inconclusive: 13% |
| CCOC(=O)C1CCN(C(=O)CCc2nc(-c3ccc(C)cc3)no2)CC1 | inactive |
| CC(=O)c1ccc(NC(=O)CCCn2nc(C)c([N+](=O)[O-])c2C)cc1 | inactive |
| O=[N+]([O-])c1ccccc1Sc1nccn1Cc1ccccc1 | inconclusive: 17% |
| COc1ccc(CNC(=O)C[C@@H]2CCNC[C@@H]2Cc2cc(CN(C)Cc3ccccc3)on2)cc1 | inconclusive: 12% |
| CNc1ccccc1C(=O)NCC1CCN(Cc2cccnc2)C1 (stereo not drawn) | inactive |
| O=C(Nc1ccc([C@@H](O)[C@H]2COCC(=O)N2Cc2ccc(C(F)(F)F)cc2)cc1)c1ccc(F)cc1 | inactive |
| CN1CCN(c2cc(C(=O)Nc3ccc4c(c3)CCC4)c3ccccc3n2)CC1 | inconclusive: 14% |
| Cc1noc(C)c1COC1CN(CC(C)C)C(=O)CN(C2CCN(C(C)C)CC2)C1 (stereo not drawn) | inactive |
| Cc1nc2cccnc2n1C1CCN(S(=O)(=O)c2ccc(C(C)C)cc2)CC1 | inconclusive: 13% |
| Cc1[nH]c2ccccc2c1CC(=O)N(Cc1nccn1C)C1CC1 | inconclusive: 20% |
| CSCC[C@@H](CO)NC(=O)c1cccc2ccnn12 | inactive |

| Compound | inhibition |
| --- | --- |
| COc1ccc2cc3cc(C(=O)Nc4ccccc4C)oc3nc2c1 | inconclusive: 12% |
| O=C(c1ccc2nc3sc4c(c3c(=O)n2c1)CCCC4)N1CCN(c2cccc(Cl)c2)CC1 | inconclusive: 25% |
| O=S(=O)(c1ccccc1)N1CCN(Cc2ccccc2F)CC1 | inconclusive: 17% |
| O=C(C1CC1)N1CCc2cc(S(=O)(=O)NC3CCCC3)ccc21 | inconclusive: 13% |
| Cc1cc(N2CCCCC2)nc(N2CCN(S(=O)(=O)c3cc(C(C)C)ccc3C)CC2)n1 | inconclusive: 19% |
| Cc1ncc(-c2c(-c3ccccc3)ncn2CCN2CCCOC2=O)[nH]1 | inconclusive: 20% |
| Cc1nn(-c2cccc(Br)c2)c(C)c1[C@@H]1C=C[C@@H](NC(=O)CC2(CC(=O)O)CCCC2)C1 | inconclusive: 12% |
| Oc1cc2ccccc2cc1-c1nnc2n1N=C(c1ccccc1)CS2 | inactive |
| O=C(Nc1ccccc1C(=O)O)c1cccc(C(=O)Nc2ccccc2C(=O)O)c1 | inconclusive: 25% |
| CC(Cn1cccn1)n1cnc2ccc(F)cc2c1=O (stereo not drawn) | inconclusive: 14% |
| O=S(=O)(N=C(Nc1ccc(Br)cc1)c1ccccc1)c1ccccc1 | inactive |
| Cc1ccc(C2=NN(C(=O)CCC(=O)O)C(c3cn(-c4ccccc4)nc3-c3ccccc3)C2)cc1 (stereo not drawn) | inactive |
| O=S(=O)(NCc1cccs1)c1cccc2cccnc12 | inconclusive: 20% |
| c1ccc(Nc2c(-c3ccccc3)nc3cnccn23)cc1 | inactive |
| CC1=C[C@@H](CNS(=O)(=O)c2cccc(C#N)c2)[C@H](C(C)C)C[C@H]1CC(=O)N(C)Cc1cccnc1 | inconclusive: 22% |
| Cc1ccc(Cl)cc1N1C(=O)C2CC=CCC2C1=O (stereo not drawn) | inconclusive: 12% |
| O=C(Nc1nc(-c2ccc(F)c(F)c2)cs1)c1ccc(F)cc1 | inactive |
| CC(O)c1cccc(-c2cc(NCc3cccnc3)nc3[nH]ccc23)c1 (stereo not drawn) | inconclusive: 19% |
| O=C(Cn1cc(CN2CCn3cncc3C2)c2ccccc21)NC1CC1 | inconclusive: 12% |
| CCCc1cc(CN(C)C(=O)c2cccs2)[nH]n1 | inconclusive: 17% |

| Compound | inhibition |
| --- | --- |
| CC(C)S(=O)(=O)c1ncc(CN2CCc3ccccc3C2)n1CCc1ccccc1 | inconclusive: 10% |
| O=C(Nc1ccc2c(c1)OCCO2)c1cc2c(=O)oc3ccccc3c2s1 | inconclusive: 15% |
| COc1cc2c(cc1OC)C(c1ccc(OC)c(OC)c1OC)N(C)CC2 (stereo not drawn) | inconclusive: 10% |
| Cc1nc2ncccn2c1C(=O)N1CCC(c2cc(C(C)C)n[nH]2)CC1 | inconclusive: 17% |
| COc1ccc2nc(Nc3nnc(-c4ccco4)o3)sc2c1 | inconclusive: 29% |
| C=CCn1c(SCC(=O)Nc2ccc3c(c2)OCO3)nc2sc(C)c(C)c2c1=O | inconclusive: 17% |
| NC(=O)c1oc2ccccc2c1NC(=O)CSc1ccccn1 | inconclusive: 13% |
| C=CCn1cnc2scc(-c3ccc(Cl)cc3)c2c1=O | inconclusive: 11% |
| O=C(c1ccccc1F)n1nnc2ccccc21 | inactive |
| Cc1cccnc1[C@H](C)NC(=O)Cc1ccc(-n2nnnc2C)cc1 | inactive |
| CC(C)C1CN(CCc2c[nH]c(=O)n(C)c2=O)CCC(=O)N1CC1CC1 (stereo not drawn) | inconclusive: 10% |
| O=C1OC(Nc2cc(Cl)cc(Cl)c2)c2ccccc21 (stereo not drawn) | inconclusive: 11% |
| CCc1ccc(OCC(=O)Nc2cc(C)c(Cl)cc2OC)cc1 | inconclusive: 15% |
| CN1C[C@@H](NC(=O)c2cccnc2)C[C@H]1c1nc(-c2cnccn2)no1 | inconclusive: 13% |
| COC(=O)[C@@H]1C[C@@H](NC(=O)CN2CCCCCCC2)CN1C | inconclusive: 18% |
| O=C(NC1CCCCCCC1)C1c2ccccc2C(=O)N1Cc1ccccc1 (stereo not drawn) | inconclusive: 19% |
| CCC(=O)c1ccc(OCC(=O)N2CCCC(C(=O)c3ccccn3)C2)cc1 (stereo not drawn) | inactive |
| CCN(CC)C(=O)[C@@H](C)C1CC[C@@]2(C)CC[C@H](NC(=O)c3ccc(OC)cc3)[C@@H](C)[C@@H]2[C@H]1O (stereo partly drawn) | inconclusive: 16% |
